Source: patent US9345738B2, “Methods for the prevention or treatment of no-reflow following ischemia/reperfusion injury” (Stealth BioTherapeutics Corp., priority 2010, dated 2016)

Tested on: rabbit heart, ischemic and non-ischemic region
Test: Regional myocardial blood flow (RMBF), radioactive microsphere technique, rabbit model of AMI
Type: in vivo, New Zealand White rabbit
Details: at 25 min of CAO
[1] = Group 1 (infusion from 10′ after CAO), 3 hearts with ischemic flow >0.20 excluded
[2] = Group 2 (infusion from 20′ after CAO), 3 hearts with ischemic flow >0.20 excluded
[3] = Group 3 (infusion from 29′ after CAO, i.e. after the measurement), 3 hearts excluded

D-Arg-2′,6′-Dmt-Lys-Phe-NH2
RMBF, ischemic region [1]: 0.02 ± 0.01 mL/min/g
RMBF, non-ischemic region [1]: 2.13 ± 0.12 mL/min/g
RMBF, ischemic region [2]: 0.03 ± 0.01 mL/min/g
RMBF, non-ischemic region [2]: 2.63 ± 0.29 mL/min/g
RMBF, ischemic region [3]: 0.05 ± 0.03 mL/min/g
RMBF, non-ischemic region [3]: 2.43 ± 0.19 mL/min/g
